This series has as its system retinal cell markers. Kind of series: Immunohistochemical analysis of retina of rhodopsin knockout mice after Compound I suspension. It counts as in vivo, mouse. How it is done: To study photoreceptor rescue by Compound I suspension (60 mg/ml), 2 ul of suspension (n=5) or Vehicle (n=5) were administered intravitreally to 4-week old rhodopsin knockout mice using a beveled glass needle, connected to a Hamilton syringe through polyethylene tubing. During the injection, corneal paracenthesis was performed to reduce intraocular pressure. 10 weeks after the injection, eyes were enucleated and fixed in Davidson solution for histological processing: paraffin embedding and sectioning. Six micron thick sections were cut in the area close to optic nerve head (ONH) and stained with hematoxylin-eosin (H&E) or processed for immunohistochemical analysis (IHC). H&E-stained sections were imaged (Olympus imaging system DP72) and total photoreceptor number was estimated based on the nuclei count in the outer nuclear layer (ONL). Cells were counted in each 100 um retina span starting from optic nerve head on three sections for each eye (five eyes per group). Total photoreceptor number per section was also calculated.
For IHC, sections were deparaffinized, heated (95° C.) in citrate buffer (pH 6.0) for 30 minutes, then blocked and stained with the antibodies for the following antigens. The photoreceptors: Opsin Blue (Millipore), Cone Arrestin (Millipore), Opsin Red/Green (Millipore), Recoverin (Millipore), Rod Outer Membrane 1 (Abnova); Müller glia and astrocytes: Lh×2 (Millipore), Glutamate synthase (Abcam), Glial Fibrillar Acidic Protein (Millipore); bipolar cells: Protein Kinase C alpha (Santa Cruz); ganglion cells: NeuN (Millipore) and GDNF (Santa Cruz).

As to `COc1cc2c(cc1S(=O)(=O)c1ccc(OCc3ccc(Cl)cc3)cc1)CCN(C)CC2` [Compound I, 7-[4-(4-chloro-benzyloxy)-benzenesulfonyl]-8-methoxy-3-methyl-2,3,4,5-tetrahydro-1H-3-benzazepine], the “expression of cone visual pigments (opsin blue and opsin red/green) or length of outer segments” value (rho-/- retina 10 weeks after treatment) is given as “No difference”. Moreover, under “rho-/- retina 10 weeks after treatment, compared to age-matched controls and vehicle-treated retina”, the recoverin staining entry is reported as “Slightly increased intensity”. In addition, the “Muller glia markers (Lhx2, GFAP, GS) and bipolar cell marker PKCa expression” value (rho-/- retina, untreated, vehicle-treated and Compound I treated, 10 weeks after the injection) is on record as “expressed at similar level in all groups”.

These data come from US20180228811A1, “GDNF INDUCTION FOR THE TREATMENT OF RETINAL DISORDERS” (THE SCHEPENS EYE RESEARCH INSTITUTE, INC., priority 2014, published 2018).
